Results published in patent US20170183640A1 (WISCONSIN ALUMNI RESEARCH FOUNDATION, published 2017).
These are yes or no findings as the source states them, for the method shown.

Tests used:
[1] = biological target: φW39 ΔN21 Ref (bacteriophage φW39) (UniProt P35926); experiment: non-reducing SDS-PAGE with or without 10 mM DTT, self-association
[2] = biological target: φW39 ΔN21 Ref (bacteriophage φW39) (UniProt P35926); experiment: analytical size exclusion (FIG. 9), self-association, Example 6
[3] = biological target: φW39 ΔN21 Ref (bacteriophage φW39) (UniProt P35926); experiment: DSG crosslinking, SDS-PAGE, self-association
[4] = biological target: φW39 wild type Ref (φW39 phage full length Ref protein) (bacteriophage φW39) (UniProt P35926); experiment: non-reducing SDS-PAGE with or without 10 mM DTT, self-association
[5] = biological target: φW39 wild type Ref (φW39 phage full length Ref protein) (bacteriophage φW39) (UniProt P35926); experiment: DSG crosslinking, SDS-PAGE, self-association
[6] = biological target: φW39 ΔN47 Ref (bacteriophage φW39) (UniProt P35926); experiment: non-reducing SDS-PAGE with or without 10 mM DTT, self-association
[7] = biological target: φW39 ΔN47 Ref (bacteriophage φW39) (UniProt P35926); experiment: analytical size exclusion (FIG. 9), self-association, Example 6
[8] = biological target: φW39 ΔN47 Ref (bacteriophage φW39) (UniProt P35926); experiment: DSG crosslinking, SDS-PAGE, self-association

B1: φW39 ΔN21 Ref (enzyme)
chain: AIARQREKLADPAWRESQYQKMRDSIDRRIAKQKERPPASKTRKSAVKIKSRGLKGRTPTAEERTIANALGTLPCIACYMHGVISEEVSLHHISGRTAPGCHKKQLPLCRWHHQHAAPAEVREKYPWLVPVHADGVVGGKKEFTLLNKSEMELLADAYEMANIMH
notes: Plasmid pEAW886; The construct starts with a Met codon from the NdeI site
binding [1]: no binding
binding [2]: no binding
binding [3]: no binding

B2: φW39 wild type Ref (φW39 phage full length Ref protein) (enzyme)
chain: MKTIEQKLEQRREWQKAARERAIARQREKLADPAWRESQYQKMRDSIDRRIAKQKERPPASKTRKSAVKIKSRGLKGRTPTAEERTIANALGTLPCIACYMHGVISEEVSLHHISGRTAPGCHKKQLPLCRWHHQHAAPAEVREKYPWLVPVHADGVVGGKKEFTLLNKSEMELLADAYEMANIMH
notes: Full-length native protein
binding [4]: no binding
binding [5]: no binding

B3: φW39 ΔN47 Ref (enzyme)
chain: DRRIAKQKERPPASKTRKSAVKIKSRGLKGRTPTAEERTIANALGTLPCIACYMHGVISEEVSLHHISGRTAPGCHKKQLPLCRWHHQHAAPAEVREKYPWLVPVHADGVVGGKKEFTLLNKSEMELLADAYEMANIMH
notes: Plasmid pEAW865; The construct starts with a Met codon from the NdeI site
binding [6]: no binding
binding [7]: no binding
binding [8]: no binding
